Assay results from PubChem BioAssay AID248 (DTP/NCI, 2004).
The list does not hold the whole screen: it gathers tests that were run many times, whatever their T/C, doses with no T/C, and many T/C values between a quarter and a half above the control. Other doses and runs of a compound stand elsewhere. T/C gives the treated animals as a percentage of the vehicle group. Some doses have a count of surviving animals in place of a T/C: the source files T/C as zero there, which appears to mark a toxic dose or a test without result, not a measured value. Some doses without a T/C left all or most animals alive at the check, yet need not have been tolerated: the source hardly ever lists a survival T/C far under the control, and the zero likely stands for such cases as well. Counts of survivors are from the toxicity check (mostly the fifth day) where no day follows; animals may have died later. Schedule codes are those of the source, taken here to give the interval after Q, in days (D) or hours (H), and the number of doses after X. Some doses were run more than once; their values stand side by side, smallest first. Some schedule codes hold Z or #, which are not explained here. For survival time, the PubChem record calls one and a half times the control and up active, and a quarter to a half above the control has no call in these data; cut-offs in other NCI protocols can differ.

System: L1210 leukemia ip in BDF1 mice, survival T/C
Assay: NCI In Vivo Anticancer Drug Screen. Data for tumor model L1210 Leukemia (intraperitoneal) in B6D2F1 (BDF1) mice
Conditions: T/C endpoint: mean survival time, higher T/C = longer survival
[1] = dose: 400.0 mg/kg/injection, schedule: Q01DX001 (ip), vehicle: carboxymethylcellulose (CMC)
[2] = dose: 400.0 mg/kg/injection, schedule: Q01DX009 (ip), vehicle: saline with Tween-80
[3] = dose: 50.0 mg/kg/injection, schedule: Q04DX002 (ip), vehicle: Klucel (hydroxypropylcellulose) (HPC)
[4] = dose: 100.0 mg/kg/injection, schedule: Q04DX002 (ip), vehicle: Klucel (hydroxypropylcellulose) (HPC)
[5] = dose: 200.0 mg/kg/injection, schedule: Q01DX009 (ip), vehicle: saline with Tween-80
[6] = dose: 200.0 mg/kg/injection, schedule: Q01DX009 (ip), vehicle: Klucel (hydroxypropylcellulose) (HPC)
[7] = dose: 400.0 mg/kg/injection, schedule: Q01DX009 (ip), vehicle: Klucel (hydroxypropylcellulose) (HPC)
[8] = dose: 100.0 mg/kg/injection, schedule: Q01DX009 (ip), vehicle: saline with Tween-80
[9] = dose: 400.0 mg/kg/injection, schedule: Q04DX003 (ip), vehicle: saline with Tween-80

Cc1cc(C)c(C(=O)O)c(O)c1
survivor count (dose: 100.0 mg/kg/injection, schedule: Q01DX001 (ip), vehicle: carboxymethylcellulose (CMC)): 4 of 4
survivor count [1]: 3 of 4

O=C(O)c1cc(-c2ccccc2)cc(Br)c1O
survivor count [1]: 2 of 4

C#CCSC(=S)NNc1ccccc1
survivor count [2]: 3 of 6

O=[N+]([O-])c1ccc(/C=N/c2oc(-c3ccc([N+](=O)[O-])cc3)nc2Sc2ccccc2)cc1
T/C [3]: 91 and 111 % of control
survivor count [3]: 3 of 3
T/C [4]: 100 % of control
survivor count [4]: 2 of 3 and 3 of 3

CCOC(=O)NCC(C)(CCN1CCCCC1)c1cccc2ccccc12 (stereo not drawn)
survivor count [5]: 0 of 6
survivor count [2]: 0 of 6

CC(Oc1cc(Cl)c(Cl)cc1Cl)C(=O)OCCCc1ccccn1 (stereo not drawn)
T/C [6]: 125 % of control
survivor count [7]: 1 of 3 and 3 of 6

CCOc1cc[n+](C)c2ccc(C)cc12
survivor count (dose: 25.0 mg/kg/injection, schedule: Q04DX002 (ip), vehicle: saline with Tween-80): 0 of 3
survivor count (dose: 50.0 mg/kg/injection, schedule: Q04DX002 (ip), vehicle: saline with Tween-80): 0 of 3
survivor count (dose: 100.0 mg/kg/injection, schedule: Q04DX002 (ip), vehicle: saline with Tween-80): 0 of 3

CC1=CC2=C(C=O)C(=O)[C@](C)(O)[C@@H](O)C2=CO1
survivor count [8]: 5 of 6
survivor count [5]: 2 of 6
survivor count [9]: 1 of 6

Cc1ccc(C)c(NC(=O)Nc2c(C)n(C)n(-c3ccccc3)c2=O)c1
survivor count [7]: 5 of 6

NNC(=O)C12CCCCC1CCC2 (stereo not drawn)
survivor count (dose: 200.0 mg/kg/injection, schedule: Q01DX009 (ip), vehicle: acetone): 6 of 6

CCOP(=O)(OCC)Oc1c(Cl)c(Cl)c(O)c(Cl)c1Cl
survivor count (dose: 400.0 mg/kg/injection, schedule: Q04DX002 (ip), vehicle: saline with Tween-80): 0 of 3

OC(c1cc2c3c(c1)CCCN3CCC2)(C(F)(F)F)C(F)(F)F
survivor count [9]: 0 of 6

CC(C(=O)O)c1ccccc1 (stereo not drawn)
survivor count [8]: 2 of 3
survivor count [5]: 3 of 3

CC(=O)OC(c1ccnc2ccccc12)C1CC2CCN1CC2 (stereo not drawn)
survivor count [1]: 1 of 4

C/C(=N/N=C(N)N)C(F)(F)F
survivor count (dose: 60.0 mg/kg/injection, schedule: Q01DX Z (ip), vehicle: saline): 0 of 6
survivor count (dose: 60.0 mg/kg/injection, schedule: Q01DX Z (oral), vehicle: saline): 5 of 6
survivor count (dose: 120.0 mg/kg/injection, schedule: Q01DX Z (ip), vehicle: saline): 0 of 6
survivor count (dose: 120.0 mg/kg/injection, schedule: Q01DX Z (oral), vehicle: saline): 0 of 6

CCCC(Br)C(=O)OCC (stereo not drawn)
survivor count [9]: 6 of 6

Nc1c2ccccc2nc2ccccc12
survivor count [9]: 3 of 3

CC(=O)Nc1ccc(S(N)(=O)=O)cc1
survivor count [6]: 3 of 3
survivor count [7]: 3 of 3
